Assay results: US11724998B2, “PXR agonists and uses thereof for gut barrier dysfunction treatment and prevention” (Albert Einstein College of Medicine, priority 2017, dated 2023)
Some results were stated once for a whole list of compounds, not compound by compound.

Legend:
AhR = biological target: T1, AhR (Homo sapiens, UniProt P35869); assay: AhR activation, AZ-AHR (stably co-transfected HepG2) reporter cells; format: cell-based; set-up: endogenous in cells; host or cells: AZ-AHR (HepG2); conditions: 10 μM; comparable with dioxin (TCDD) control ligand
T1 sequence (P35869 11-848): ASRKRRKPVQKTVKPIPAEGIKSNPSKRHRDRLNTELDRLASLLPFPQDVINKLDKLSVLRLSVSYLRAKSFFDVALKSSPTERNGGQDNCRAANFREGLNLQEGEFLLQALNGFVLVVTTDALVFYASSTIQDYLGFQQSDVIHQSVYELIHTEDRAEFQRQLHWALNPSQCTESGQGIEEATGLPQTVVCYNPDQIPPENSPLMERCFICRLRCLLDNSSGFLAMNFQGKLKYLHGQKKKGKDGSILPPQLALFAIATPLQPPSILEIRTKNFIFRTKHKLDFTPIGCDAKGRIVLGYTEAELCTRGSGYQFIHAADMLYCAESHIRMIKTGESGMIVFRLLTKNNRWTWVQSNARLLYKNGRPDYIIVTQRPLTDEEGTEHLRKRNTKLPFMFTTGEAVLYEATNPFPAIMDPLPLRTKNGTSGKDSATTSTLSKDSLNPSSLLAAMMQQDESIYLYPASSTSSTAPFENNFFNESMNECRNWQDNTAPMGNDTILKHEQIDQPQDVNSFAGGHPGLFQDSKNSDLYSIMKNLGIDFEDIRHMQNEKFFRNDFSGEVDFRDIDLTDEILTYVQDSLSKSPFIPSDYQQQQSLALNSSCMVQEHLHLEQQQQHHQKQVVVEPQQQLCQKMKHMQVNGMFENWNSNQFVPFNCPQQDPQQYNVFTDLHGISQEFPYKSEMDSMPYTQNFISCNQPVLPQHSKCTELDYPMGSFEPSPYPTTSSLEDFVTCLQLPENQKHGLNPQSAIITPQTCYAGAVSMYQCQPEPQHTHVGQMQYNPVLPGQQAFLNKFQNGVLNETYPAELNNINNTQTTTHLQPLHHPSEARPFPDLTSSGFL
Protocol: FIG. 6A-6E. Activation and inhibition studies with different FKK compounds. (A) PXR activation, LS180 cells (upper), and PXR inhibition, LS180 cells, co-incubation with RIF (lower). (B) AhR activation, AZ-AHR cells (upper), and AhR inhibition, AZ-AHR cells, co-incubation with TCDD (lower). (C) GR activation, AZ-GR cells (upper), and VDR activation, IZ-VDRE cells (lower). (D) TR activation, PZ-GR cells (upper), and AR activation, AIZ-AR cells (lower). (E) Displacement of radiolabeled 9-cis-retinoic acid (RA) by FKK compounds.
All the synthesized compounds and intermediates were tested for their potential to activate PXR and/or AhR via luciferase assays. The PXR activation assays were performed by co-transfecting full-length expressing human PXR plasmid (91) and p3A4 luciferase reporter (92) in LS180 or Caco-2 cells. AhR activation conducted using stably co-transfected HepG2 reporter cells as previously described (93). […] With the exception of FKK6, there was no significant inhibition of TCDD-induced AhR activation. […] Independent verification of AhR activity of randomly selected compounds—FKK 5, 6 and 9—was performed in a separate laboratory (GHP). Nuclear receptor selectivity was assessed for FKK compounds for GR, ADR, TR and AR using cell-based luciferase assays previously described (93-102). […]

[1] = test system: AhR target genes (CYP1A1 and CYP1A2); assay: AhR target gene mRNA expression in HepaRG cells (control, AhR-KO); conditions: FIGS. 9C & 9D
[2] = test system: PXR target genes (CYP3A4, MDR1); assay: PXR target gene mRNA expression in plated human hepatocytes; conditions: 4 hepatocyte isolations: FKK6 in 3 of 4, FKK7 in 2 of 4; FIG. 8A

Row | Structure (SMILES) | AhR activation (AhR) [fold] | induction of CYP1A1 and CYP1A2 [1] [fold] | CYP3A4 mRNA induction [2] [fold]
1 | OC(c1ccncc1)(c1cc2ccccc2[nH]1)c1cc2ccccc2[nH]1 [FKK2] | > 100 | > 100 | –
2 | C#CCC(O)(c1ccncc1)c1cc2ccccc2n1S(=O)(=O)c1ccccc1 (stereo not drawn) [FKK6] | – | – | > 2
3 | O=S(=O)(c1ccccc1)n1c(C(O)(Cc2cc3ccccc3[nH]2)c2ccncc2)cc2ccccc21 (stereo not drawn) [FKK7] | – | – | > 2
4 | CCOCn1c(C(O)(Cc2cc3ccccc3[nH]2)c2ccncc2)cc2ccccc21 (stereo not drawn) [FKK9] | > 100 | > 100 | –
